Source: the supplement of paper PMC6411743
± gives the standard deviation of the averaged measurements. The list shows a part of the results.

Target: T1, UniProt Q9UKW4 and related entries
T1 sequence (whole entry): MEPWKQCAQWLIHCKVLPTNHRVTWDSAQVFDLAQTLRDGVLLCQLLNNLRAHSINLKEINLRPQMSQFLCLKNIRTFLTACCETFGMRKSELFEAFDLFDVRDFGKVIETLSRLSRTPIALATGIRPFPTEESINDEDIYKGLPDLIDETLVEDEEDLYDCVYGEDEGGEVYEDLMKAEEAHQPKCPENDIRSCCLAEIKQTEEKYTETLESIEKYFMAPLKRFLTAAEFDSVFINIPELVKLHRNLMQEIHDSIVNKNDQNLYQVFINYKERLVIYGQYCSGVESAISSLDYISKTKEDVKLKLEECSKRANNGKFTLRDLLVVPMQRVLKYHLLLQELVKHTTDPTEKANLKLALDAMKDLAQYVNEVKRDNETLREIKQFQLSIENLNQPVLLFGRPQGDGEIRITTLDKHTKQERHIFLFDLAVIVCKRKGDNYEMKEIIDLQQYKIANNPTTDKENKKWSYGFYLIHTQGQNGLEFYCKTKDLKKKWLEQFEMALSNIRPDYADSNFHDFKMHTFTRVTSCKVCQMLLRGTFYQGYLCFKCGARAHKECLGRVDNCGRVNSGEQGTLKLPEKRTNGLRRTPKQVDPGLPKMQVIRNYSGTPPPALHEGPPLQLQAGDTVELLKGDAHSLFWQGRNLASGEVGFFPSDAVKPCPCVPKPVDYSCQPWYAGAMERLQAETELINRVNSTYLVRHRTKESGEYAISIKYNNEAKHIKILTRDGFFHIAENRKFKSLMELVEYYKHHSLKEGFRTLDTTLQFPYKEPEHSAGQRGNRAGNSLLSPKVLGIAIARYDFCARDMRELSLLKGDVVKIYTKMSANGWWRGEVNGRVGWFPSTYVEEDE
Test: NP40-soluble protein abundance relative to vehicle (solubility fold change) (ratio); higher = more soluble protein in presence of GTP
Description: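 Solubility proteome profiling in Jurkat crude lysate. Lysate was treated with Mg-GTP (0.1-10 mM) for 10 min at room temperature and 3 min at 37 °C, then solubilised with 0.8% NP40 and benzonase, followed by ultracentrifugation. Proteins were quantified by TMT10 LC-MS/MS; the value is the NP40-soluble abundance relative to the NP40-processed vehicle, from 3 independent experiments.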

Nc1nc2c(ncn2[C@@H]2O[C@H](COP(=O)(O)OP(=O)(O)OP(=O)(O)O)[C@@H](O)[C@H]2O)c(=O)[nH]1 [guanosine triphosphate]
NP40-soluble protein abundance (concentration: 0.1mM): 1.04 ± 0.017 | NP40-soluble protein abundance (concentration: 0.5mM): 1.04 ± 0.053 | NP40-soluble protein abundance (concentration: 1mM): 0.916 ± 0.014 | NP40-soluble protein abundance (concentration: 2mM): 0.928 ± 0.069 | NP40-soluble protein abundance (concentration: 4mM): 0.902 ± 0.053 | NP40-soluble protein abundance (concentration: 6mM): 0.9 ± 0.041 | NP40-soluble protein abundance (concentration: 8mM): 0.869 ± 0.043 | NP40-soluble protein abundance (concentration: 10mM): 0.834 ± 0.084
